No constants are given. Whether binding was seen depends on the method and setting. In cells and extracts the contact can be indirect. A yes stands for co-enrichment or nearness to the bait. Other partners may have been found.
Molecular target: Strep-tagged Nsp8 of SARS-CoV-2 (SARS-CoV-2) (UniProt P0DTD1)
Assay: affinity purification with mass spectrometry

B1: EXOSC10 (protein, UniProt Q01780 1-885)
chain: MAPPSTREPRVLSATSATKSDGEMVLPGFPDADSFVKFALGSVVAVTKASGGLPQFGDEYDFYRSFPGFQAFCETQGDRLLQCMSRVMQYHGCRSNIKDRSKVTELEDKFDLLVDANDVILERVGILLDEASGVNKNQQPVLPAGLQVPKTVVSSWNRKAAEYGKKAKSETFRLLHAKNIIRPQLKFREKIDNSNTPFLPKIFIKPNAQKPLPQALSKERRERPQDRPEDLDVPPALADFIHQQRTQQVEQDMFAHPYQYELNHFTPADAVLQKPQPQLYRPIEETPCHFISSLDELVELNEKLLNCQEFAVDLEHHSYRSFLGLTCLMQISTRTEDFIIDTLELRSDMYILNESLTDPAIVKVFHGADSDIEWLQKDFGLYVVNMFDTHQAARLLNLGRHSLDHLLKLYCNVDSNKQYQLADWRIRPLPEEMLSYARDDTHYLLYIYDKMRLEMWERGNGQPVQLQVVWQRSRDICLKKFIKPIFTDESYLELYRKQKKHLNTQQLTAFQLLFAWRDKTARREDESYGYVLPNHMMLKIAEELPKEPQGIIACCNPVPPLVRQQINEMHLLIQQAREMPLLKSEVAAGVKKSGPLPSAERLENVLFGPHDCSHAPPDGYPIIPTSGSVPVQKQASLFPDEKEDNLLGTTCLIATAVITLFNEPSAEDSKKGPLTVAQKKAQNIMESFENPFRMFLPSLGHRAPVSQAAKFDPSTKIYEISNRWKLAQVQVQKDSKEAVKKKAAEQTAAREQAKEACKAAAEQAISVRQQVVLENAAKKRERATSDPRTTEQKQEKKRLKISKKPKDPEPPEKEFTPYDYSQSDFKAFAGNSKSKVSSQFDPNKQTPSGKKCIAAKKIKQSVGNKSMSFPTGKSDRGFRYNWPQR
binding: binds

— PMC9585911
